Source: patent US20220204473A1, “COMPOUND AS IRAK INHIBITOR” (SHANGHAI MEIYUE BIOTECH DEVELOPMENT CO., LTD., priority 2018, published 2022)
Some results were stated once for a whole list of compounds, not compound by compound.

System: Salmonella typhimurium TA98 and TA100
Assay: Mini-Ames assay in Salmonella typhimurium
Conditions: TA98 and TA100, with or without S9 mixture, 1.5-1000 μg/well

SMILES	average number of revertant colonies relative to the average number of the vehicle control group
COc1cc2nn([C@H]3CC[C@@](C)(O)CC3)cc2cc1NC(=O)c1cccc(C(F)(F)F)n1 [MY-004-126-2]	less than 2 times
COc1cc2nn([C@H]3CC[C@H](O)CC3)cc2cc1NC(=O)c1cccc(C(F)(F)F)n1 [MY-004-127-1]	less than 2 times
